Source: patent US4278595A, “Orally active MIF analogs with an effect on the central nervous system” (Vega Laboratories, Inc., priority 1979, dated 1981)
At least one peptide structure holds a part that was inferred or is arguable (an end, a ring closure or a residue). Where a SMILES comes first, the peptide text is derived from it. [ ]: non-standard residue; d: D form.

Legend:
Assay type in all cases: in vivo, rat
[1] = tested on: reserpinized male Long-Evans rats; assay: Locomotor activity of reserpinized rats after intraventricular administration (first series); settings: rats reserpinized i.p. 10 mg/kg
Method: (§1) The MIF analogs were tested for "Parkinsonion" locomotor behavior response by three different test procedures.
In the first series of tests, male Long-Evans rats were prepared with a cannula fixed from the exterior to the lateral ventricle for direct intraventricular administration. The rats were reserpinized i.p. (10 mg/kg), and then MIF or MIF analogs, were given directly into the CSF. Activity of the rats was measured in counts/10 minutes with a digital printout activity meter (Columbus Instruments, model PB 5244, Columbus, Ohio). The results of these tests are as follows

[2] = tested on: reserpinized male Long-Evans rats; assay: L-DOPA potentiation: locomotor activity of reserpinized rats given agent i.p. with Carbi-DOPA and L-DOPA (second series); settings: 2 mg/kg i.p. with 10 mg/kg Carbi-DOPA and 100 mg/kg L-DOPA
Method: as §1
In the second series of tests, male Long-Evans rats prepared and reserpinized as described for the first series, were treated i.p. with 2 mg/kg of MIF or MIF analog, 10 mg/kg of Carbi-DOPA, a competitive inhibitor of DOPA-decarboxylase (to prolong the L-DOPA effect), and 100 mg/kg of L-DOPA. The control group received the latter two substances, but no MIF or MIF analog. Activity of the rats was measured, in counts/10 minutes with a digital printout activity meter, at 15, 35, 55, 75, 95 and 105 minutes after injection.

[3] = tested on: male Sprague-Dawley rats with unilateral 6-hydroxy-Dopamine lesion in the substantia nigra; assay: Duration of L-DOPA-reversed rotational behavior in rats with unilateral 6-hydroxy-Dopamine lesion of the substantia nigra (third series)
Method: The MIF analogs were tested for "Parkinsonion" locomotor behavior response by three different test procedures. In the third series of tests, male Sprague-Dawley rats received a unilateral chemical lesion (by injection of 6-hydroxy-Dopamine) in the substantia nigra, which is followed by rotational movement. When L-DOPA is given i.p. (in two doses, 13 and 26 mg/kg) the direction of rotational movement is reversed, and the duration of the reversed rotational motion was measured in minutes. The same doses of L-DOPA were then given in the experimental groups in combination with 2 mg/kg of either MIF or the MIF analogs, all i.p., or by gastric tube in a dose of 4 mg/kg, and the duration, in minutes, of reversed rotational behavior was observed.

`CC(C)C[C@@H](NC(=O)[C@@H]1CCCN1)C(=O)NCC(N)=O` [Pro--D--Leu--Gly--NH2] (H-Pro-[dL]-Gly-NH2) was tested, and the “% Increase in Activity, Counts/10 Minutes” value ([1]; 10 ng directly into the CSF (lateral ventricle)) was 120%, the “% Increase in Activity, Counts/10 Minutes” value ([1]; 100 ng directly into the CSF (lateral ventricle)) was 230% and the “% Increase in Activity, counts/10 min.” value ([2]; 15 min. after injection) was 83%. For the same molecule, the “% Increase in Activity, counts/10 min.” value ([2]; 35 min. after injection) was 442%, the “% Increase in Activity, counts/10 min.” value ([2]; 55 min. after injection) was 1383% and the “% Increase in Activity, counts/10 min.” value ([2]; 75 min. after injection) was 1008%. For the same molecule, the “% Increase in Activity, counts/10 min.” value ([2]; 95 min. after injection) was 983%, the “% Increase in Activity, counts/10 min.” value ([2]; 105 min. after injection) was 367% and the “Duration of Reversed Rotational Behavior” value ([3]; Injection: L-DOPA i.p. (13 and 26 mg/kg) alone or in combination with 2 mg/kg MIF or analog i.p.) was 74 ± 6.3 min. The “Duration of Reversed Rotational Behavior” value ([3]; Oral: L-DOPA i.p. (13 and 26 mg/kg) alone or in combination with 4 mg/kg MIF or analog by gastric tube) was 80 ± 8.2 min.
